Here are results for two substances from article PMC5577189.

Sequences of proteins named here, by UniProt entry; tags and fusion partners are left off.
UniProt Q9UBN7: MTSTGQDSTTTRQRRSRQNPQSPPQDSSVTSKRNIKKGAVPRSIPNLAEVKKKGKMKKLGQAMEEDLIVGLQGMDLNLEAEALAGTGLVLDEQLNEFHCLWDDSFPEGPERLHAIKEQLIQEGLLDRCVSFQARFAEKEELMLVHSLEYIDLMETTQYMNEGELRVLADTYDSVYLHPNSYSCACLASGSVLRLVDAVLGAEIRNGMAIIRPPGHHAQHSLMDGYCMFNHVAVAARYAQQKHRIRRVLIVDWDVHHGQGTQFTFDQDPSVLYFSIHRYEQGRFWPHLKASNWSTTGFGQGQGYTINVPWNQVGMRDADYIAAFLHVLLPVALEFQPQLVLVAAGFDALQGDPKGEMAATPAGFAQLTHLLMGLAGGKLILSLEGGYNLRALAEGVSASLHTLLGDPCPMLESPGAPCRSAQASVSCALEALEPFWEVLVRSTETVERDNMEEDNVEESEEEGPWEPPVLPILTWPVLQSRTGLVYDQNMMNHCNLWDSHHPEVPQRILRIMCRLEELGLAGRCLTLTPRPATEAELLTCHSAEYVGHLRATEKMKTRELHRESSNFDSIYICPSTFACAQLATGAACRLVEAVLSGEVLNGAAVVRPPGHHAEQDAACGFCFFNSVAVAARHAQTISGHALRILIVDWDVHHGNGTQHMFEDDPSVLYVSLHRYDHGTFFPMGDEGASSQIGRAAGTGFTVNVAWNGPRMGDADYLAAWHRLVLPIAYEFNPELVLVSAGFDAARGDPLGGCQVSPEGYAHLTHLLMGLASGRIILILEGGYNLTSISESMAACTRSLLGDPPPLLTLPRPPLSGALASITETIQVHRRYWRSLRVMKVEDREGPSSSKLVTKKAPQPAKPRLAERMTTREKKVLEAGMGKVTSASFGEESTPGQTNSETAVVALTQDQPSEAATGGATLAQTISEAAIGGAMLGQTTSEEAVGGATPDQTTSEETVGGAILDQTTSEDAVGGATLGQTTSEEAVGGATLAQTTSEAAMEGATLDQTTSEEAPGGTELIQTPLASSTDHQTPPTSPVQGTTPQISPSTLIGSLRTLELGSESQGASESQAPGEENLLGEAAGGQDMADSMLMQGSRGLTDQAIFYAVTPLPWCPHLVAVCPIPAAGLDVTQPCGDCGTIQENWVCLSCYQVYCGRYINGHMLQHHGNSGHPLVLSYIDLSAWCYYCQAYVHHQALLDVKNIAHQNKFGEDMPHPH

In assay [1] the target is Cyclin-dependent kinase 1 (human (endogenous in MCF7)) (UniProt P06493). In words: condition: only cells treated with 3-methyladenine (autophagosome formation blocked); co-IP; anti-CDK1 immunoprecipitation from NP40 extracts (5 mg of extract protein) of MCF7 cells treated with 3-methyladenine (10 mM) for 24 hours; immunoblot. In general terms: Immunoblotting shows a protein as a band on a membrane.

Assay [2] has the same target. The experiment in a line: co-IP; anti-CDK1 immunoprecipitation from NP40 extracts (150 mM NaCl, 10 mM Tris-HCl pH 7.5, 1% NP40) of MCF7 cells treated with ammonium chloride (40 mM) or concanamycin A (50 nM) for 24 hours; immunoblot; normal mouse serum as control.
In another assay the target is Flag-CDK1 (UniProt P06493). In words: co-IP; anti-Flag immunoprecipitation from extracts of transfected HEK293T cells treated with etoposide and concanamycin A for 24 hours; immunoblot; normal mouse serum as control.
Assay [3] concerns the target Cyclin-dependent kinase 1 (human (endogenous in MCF7)) (UniProt P06493). In words: condition: only untreated cells (without ammonium chloride); co-IP; anti-CDK1 immunoprecipitation from NP40 extracts of untreated MCF7 cells; immunoblot.

Results are given in words; binding and its absence hold for the method and conditions named. Binding seen in cells or lysates may run through a third protein. Some binding calls cover weakened binding; strength is not graded here.

For “Histone deacetylase 6 (from UniProt Q9UBN7 1-1215)”, the binding result in assay [1] is recorded as “no binding”; in assay [2], “binds”; with Flag-CDK1, “binds”.

Consider p62/SQSTM1 (from UniProt Q13501 1-440), for which the binding result in assay [1] was “no binding”; in assay [3], “no binding”; in assay [2], “binds”; with Flag-CDK1, “binds”.
